These are literature values, as cited in article PMC6723713, “Purification, Characterization and Evaluation of Inhibitory Mechanism of ACE Inhibitory Peptides from Pearl Oyster (Pinctada fucata martensii) Meat Protein Hydrolysate” (Marine Drugs, 2019).

Sequences of proteins named here, by UniProt entry; tags and fusion partners are left off. Residues count along the entry.
UniProt P12822, 34-1310 limits assumed: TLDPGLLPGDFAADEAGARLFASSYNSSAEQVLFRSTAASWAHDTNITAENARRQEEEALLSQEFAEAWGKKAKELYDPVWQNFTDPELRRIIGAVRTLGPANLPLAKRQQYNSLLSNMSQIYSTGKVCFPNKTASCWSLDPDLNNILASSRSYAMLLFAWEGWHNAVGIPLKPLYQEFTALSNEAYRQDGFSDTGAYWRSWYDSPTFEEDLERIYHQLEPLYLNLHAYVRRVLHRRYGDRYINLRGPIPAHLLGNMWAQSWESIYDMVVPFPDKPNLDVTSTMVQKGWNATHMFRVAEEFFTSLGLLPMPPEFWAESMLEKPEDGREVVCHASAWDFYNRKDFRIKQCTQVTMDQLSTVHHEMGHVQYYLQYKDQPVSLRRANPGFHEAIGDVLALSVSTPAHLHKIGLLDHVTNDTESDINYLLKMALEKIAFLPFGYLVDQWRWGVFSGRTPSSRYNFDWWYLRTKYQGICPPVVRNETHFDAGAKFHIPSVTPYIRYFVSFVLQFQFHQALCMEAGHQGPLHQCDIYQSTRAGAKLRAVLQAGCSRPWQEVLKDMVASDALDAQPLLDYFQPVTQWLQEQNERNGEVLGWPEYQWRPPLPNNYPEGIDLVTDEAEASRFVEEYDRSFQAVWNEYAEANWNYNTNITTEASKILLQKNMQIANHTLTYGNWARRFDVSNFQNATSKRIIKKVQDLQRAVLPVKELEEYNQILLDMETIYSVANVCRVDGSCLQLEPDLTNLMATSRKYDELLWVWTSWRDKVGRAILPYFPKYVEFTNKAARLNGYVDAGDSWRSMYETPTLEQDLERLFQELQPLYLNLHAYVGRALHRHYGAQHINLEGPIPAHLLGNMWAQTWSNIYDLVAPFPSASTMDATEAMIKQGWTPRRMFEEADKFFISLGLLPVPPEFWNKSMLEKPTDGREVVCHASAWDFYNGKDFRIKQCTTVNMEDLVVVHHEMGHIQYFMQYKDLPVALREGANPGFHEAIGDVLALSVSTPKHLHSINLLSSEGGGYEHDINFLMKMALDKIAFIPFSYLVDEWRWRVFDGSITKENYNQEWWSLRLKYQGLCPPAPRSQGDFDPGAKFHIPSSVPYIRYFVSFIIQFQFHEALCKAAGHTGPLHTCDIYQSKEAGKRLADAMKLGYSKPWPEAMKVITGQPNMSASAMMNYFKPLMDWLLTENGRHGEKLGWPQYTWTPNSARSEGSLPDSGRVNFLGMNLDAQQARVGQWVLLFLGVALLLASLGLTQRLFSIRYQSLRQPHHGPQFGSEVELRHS

Where two headings read alike, the source gives them in different places. The structures given here were assigned with low confidence; some may be wrong.

A word on the IC50: it is the concentration needed to halve the response being measured.

The data set addresses ACE (Oryctolagus cuniculus, UniProt P12822). The conditions noted are these: cited from earlier work. The source says:
Table 2 Summary of ACE inhibitory peptides having similar structure with purified peptides. | column: IC50 (μM) || Table 3 Inhibition pattern of ACE inhibitory peptides derived from marine products. | column: Inhibition Pattern; IC50 (μM)

As for `CC(C)[C@H](N)C(=O)N[C@@H](CCCCN)C(=O)N1CCC[C@H]1C(=O)O`, where the note is “ref [36]”, the IC50 is 3.7 µM and the “Inhibition Pattern” value is on record as “Competitive”. Take `C[C@H](N)C(=O)NCC(=O)N[C@@H](Cc1c[nH]c2ccccc12)C(=O)O`: under “ref [28]”, the IC50 is < 10 µM. In the case of `CC(C)C[C@H](NC(=O)[C@H](CC(C)C)NC(=O)[C@@H](N)Cc1c[nH]cn1)C(=O)O`, the IC50 (ref [28]) was 22.2 µM. As for `NCC(=O)N[C@@H](Cc1c[nH]c2ccccc12)C(=O)O`, the IC50 (ref [28]) was 30 µM.

For the molecule `CC(C)[C@H](N)C(=O)N[C@@H](CCCCN)C(=O)N[C@@H](CCCCN)C(=O)O`, where the note is “ref [36]”, the IC50 was 1040 µM and the “Inhibition Pattern” value is reported as “Competitive”.

Regarding `CC[C@H](C)[C@H](N)C(=O)NCC(=O)N[C@@H](Cc1c[nH]c2ccccc12)C(=O)O`, the IC50 (ref [28]) is < 10 µM.
